Some of these results come from one statement about several compounds together. For at least one compound, name, drawing or mass did not settle the structure.
Assays:
[1] = tested on: Ctenocephalides felis (Cat Flea); experiment: Activity in vitro against Ctenocephalides felis (cat flea), artificial blood feeding system; conditions: 100 ppm; adult fleas fed on treated blood for 24 hours; dead fleas counted
[2] = tested on: Rhipicephalus sanguineus (Dog Tick); experiment: Activity in vitro against Rhipicephalus sanguineus (dog tick), adult contact test; conditions: 640 ppm; adult ticks, 10 minutes contact, 7 days at 28° C. and 80% relative humidity
[3] = tested on: Rhipicephalus sanguineus nymphs; experiment: Activity in vivo against Rhipicephalus sanguineus nymphs on Mongolian gerbils (per oral application); conditions: 100 mg/kg orally by gavage, tick number reduction vs placebo, Abbot's formula
[4] = tested on: Ctenocephalides felis (Cat Flea); experiment: Activity in vivo against Ctenocephalides felis (cat flea) on Mongolian gerbils (per oral application); conditions: 100 mg/kg orally by gavage, live fleas counted 48 h after infestation, vs placebo, Abbot's formula

Row | SMILES | efficacy (EC80) [1] | efficacy (EC80) [2] | efficacy (EC90) [3] | efficacy (EC90) [4]
1 | Cc1cc(C2=NOC(c3cc(Cl)cc(Cl)c3)(C(F)(F)F)C2)sc1C(=O)Nc1nc(C(F)(F)F)cs1 (centres unmarked) [Compound 1.31] | more than 80% | more than 80% | more than 90% | more than 90%
2 | C#CCNC(=O)CNC(=O)c1sc(C2=NOC(c3cc(Cl)cc(Cl)c3)(C(F)(F)F)C2)cc1C (centres unmarked) [Compound 1.48] | more than 80% | more than 80% | more than 90% | more than 90%
3 | Cc1cc(C2=NOC(c3cc(Cl)cc(Cl)c3)(C(F)(F)F)C2)sc1C(=O)NCC(=O)NCC#N (centres unmarked) [Compound 1.49] | more than 80% | more than 80% | more than 90% | more than 90%
4 | Cc1cc(C2=NOC(c3cc(C(F)(F)F)cc(C(F)(F)F)c3)(C(F)(F)F)C2)sc1C(=O)NCC(=O)NCC(F)(F)F (centres unmarked) [Compound 2.3] | more than 80% | more than 80% | more than 90% | more than 90%
5 | Cc1cc(C2=NOC(c3cc(Cl)c(Cl)c(Cl)c3)(C(F)(F)F)C2)sc1C(=O)NCC(=O)NCC(F)(F)F (centres unmarked) [Compound 2.4] | more than 80% | more than 80% | more than 90% | more than 90%
6 | Cc1cc(C2=NOC(c3cc(Cl)c(F)c(Cl)c3)(C(F)(F)F)C2)sc1C(=O)NCC(=O)NCC(F)(F)F (centres unmarked) [Compound 2.5] | more than 80% | more than 80% | more than 90% | 

Reference: patent publication US9044389B2, “Isoxazoline derivatives as pesticides” (Novartis AG, priority 2008, dated 2015)
